Reference: PubChem BioAssay AID1347423 (Functional Genomics Laboratory (NCATS/FGL), 2020)
The whole screen tested about 52,000 sequences, of which about 210 (0.4%) were called active.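 The calls were made as follows: active = gene whose silencing raises cell survival under the drug, median off-target-corrected z-score across its silencing RNAs 2 or more; inactive = the rest.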 The list shows a part of the results.

Experiment: Resistance to Poly (ADP-Ribose) Polymerase inhibitor: Gene Identification via Genome-wide siRNA Screen
Settings: mouse BRCA2 R2336H ES cells, olaparib, CellTiter-Glo viability; stronger effect = higher value
Summary of the method: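 Genome-wide siRNA screen (3 siRNAs/gene, 20 nM) in mouse ES cells carrying hypomorphic BRCA2 R2336H; olaparib 500 nM added 48 h post-transfection, CellTiter-Glo viability 72 h later. Normalized to plate-median negative control; MAD z-scores, gene median, seed-adjusted.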
For GGCAAUGGUUCAGCAGUGGTT against Eef1e1, the z-score was inactive: -0.219.
For GGUUCCUCUUGUGAGUGCCTT against Tm7sf1, the z-score was inactive: -0.814.
For CCUCUUCACUAUAGCACUCTT against Olfr1019, the z-score was inactive: 0.42.
In the case of “GGGAUAGGCUUAAACUCAUTT against 4930569K13Rik”, the z-score is reported as inactive: -0.0564.
With GGAUUAAACCAUUAACUGCTT against Stdp1 the z-score was inactive: -0.349.
With GGAUAUUGGUGGCACUUUATT against Med6 the z-score was inactive: 0.125.
With CCCAAUUCAGGUUUUUAACTT against Midn the z-score was inactive: 0.524.
For GCUGGUAUACGAGACCGUATT against Fshb, the z-score was inactive: 0.127.
For GCUCUGCUAUCGUGAUCUGTT against Kctd13, the z-score was inactive: -1.44.
In the case of “GCCCAGUCUUCUGAUGAACTT against 2400006N03Rik”, the z-score is reported as inactive: 0.284.
In the case of GGUCCUACAUCUCCUUCGATT against Cars, the z-score is reported as inactive: -2.9.
For GCUAUUCAAUGGACCAGAATT against Olfr490, the z-score was inactive: -2.5.
In the case of CCAGAUGCAUCAAAAUUUUTT against Tbc1d15, the z-score is reported as inactive: 0.242.
In the case of GGCCAGCAAAUUCAAAUCATT against Sp4, the z-score is reported as inactive: 0.133.
With GGCUAUUGUACAACUUAUATT against Pafah1b2 the z-score was inactive: 0.135.
For GGUUAAUUGUCGACUAGACTT against Pcdhgb5, the z-score was inactive: -0.646.
In the case of GGUUUUCUACUUCUCAAUUTT against Sec61g, the z-score is reported as inactive: 1.4.
In the case of GGUAAUUUUGAAUGUGGCATT against Lemd2, the z-score is reported as inactive: 1.54.
In the case of “GGGACACUUGGACUUUAUATT against 2310020A21Rik”, the z-score is reported as inactive: -0.511.
In the case of GCUAAUCUAUCCGUGUCCUTT against B3gnt3, the z-score is reported as inactive: 0.175.
With “GCUAGAUCCAUCCAUAUAGTT against 9130017N09Rik” the z-score was inactive: -1.64.
In the case of GCGGAUGUUGAAAUGUUUATT against Shprh, the z-score is reported as inactive: 0.162.
For UGCAACUGUUCAGAUUCUGTT against Olfr149, the z-score was inactive: -0.476.
For GGAAGAAAUGUUUUUUGGUTT against Hivep2, the z-score was inactive: -0.609.
With GGUAUUGGAUAACAGAAUUTT against Rasgrp1 the z-score was inactive: 1.05.
With GGAGAGCUCUAUGGAUCGATT against Fgf16 the z-score was inactive: -0.2.
For CCCGGAUCUGAAAACUGAUTT against Capns1, the z-score was inactive: -0.967.
With GGGACAGAUACUUCAGAAGTT against Kcnv1 the z-score was inactive: -0.937.
With GGCUGCUGUCAUUAUUUGUTT against Terf2 the z-score was inactive: 2.28.
With GGCCCUUCAUUUAGUGGAUTT against Trim44 the z-score was inactive: -1.06.
With GGACCAAGGCUUUAUGAACTT against Crygn the z-score was inactive: 1.61.
In the case of “GCCCAUGCCUAUGCUAAUGTT against A530095I07Rik”, the z-score is reported as inactive: -0.819.
In the case of GGUCUUUUCGAACUCUUCATT against Senp2, the z-score is reported as inactive: -0.392.
For GGAUUAGGAAACGUGUAUUTT against Jmjd1b, the z-score was inactive: -0.0148.
In the case of GCGACUAUCUAACACGAGUTT against Sacm1l, the z-score is reported as inactive: -1.03.
With GGUCAAAAUUGAAUAUCCATT against Gpr172b the z-score was inactive: 0.696.
For GCUUUUCACACGAAAAGGATT against BC042901, the z-score was inactive: -0.0398.
For GAAGCCUAUUGCUCAAGAUTT against LOC382106, the z-score was inactive: 1.14.
With CCAAACCACCUACCGUAAATT against Rnase9 the z-score was inactive: 0.971.
For CCCACUGUGUUUGUAAAGATT against Emr4, the z-score was inactive: -0.49.
For GCCAUCUUUUUACCUGGUCTT against Sepn1, the z-score was inactive: -0.394.
With CGAGAUUGACUCUAUUGGCTT against Psmc5 the z-score was inactive: -0.000499.
For GCUAAUGGACGAUUUGAAGTT against Ube2j1, the z-score was inactive: 0.0387.
For GGCUCUUCAUGAUCCUUUGTT against Clic4, the z-score was inactive: 0.155.
With GGUGCUACAAGAAAUGUCUTT against F13b the z-score was inactive: -0.0762.
For AAAGAGAUUGGAAAUCUUCTT against BQ176089, the z-score was inactive: 0.594.
In the case of GGCAAGAAUUCGUUCAUGUTT against Centa1, the z-score is reported as inactive: 0.638.
For GGUCUUCGUGUCGACAUUCTT against Gpr153, the z-score was inactive: 0.637.
With GGACAUUGACACUACUCCATT against Cyp2c55 the z-score was inactive: 0.131.
With “GGUAGAGCUGCACUUUGGATT against 1110033O09Rik” the z-score was inactive: -0.735.
With GGAGACCUGAAUUUUUCAGTT against Map3k7ip2 the z-score was inactive: 0.671.
For GGCAUUUUUCUUAGUGAUCTT against Olfr1277, the z-score was inactive: -0.096.
For GGUAGGAAACCUCUCAGAGTT against Kcnc1, the z-score was inactive: -1.28.
In the case of GGUCAACAUUUGCUGUAAGTT against Inhba, the z-score is reported as inactive: -0.181.
In the case of “GGGAGUUAUGUUGGUAUCATT against 1700029F12Rik”, the z-score is reported as inactive: -2.34.
In the case of GCUUAAAUUGACCUCAGUGTT against Nmi, the z-score is reported as inactive: -1.42.
With CCUCAGAUAUUACAUACACTT against Sfrs3 the z-score was inactive: 0.298.
For GGAUGAAUGGAAUUUACUGTT against Fbxo18, the z-score was inactive: 0.103.
For GGUGAAGCUGAAACAACAUTT against BC020002, the z-score was inactive: 0.323.
For GGGAGAGAACGUGUUCUUCTT against P2rxl1, the z-score was inactive: -1.15.
In the case of CGGGAAACUUAGGUAUGAUTT against Olfr1009, the z-score is reported as inactive: -0.943.
For GCAUAUGGUCCACUAAAAATT against Kcnj4, the z-score was inactive: 0.316.
In the case of “CCUGCUGAAAUAUCAUAAATT against C030039L03Rik”, the z-score is reported as inactive: 0.187.
In the case of CCGCACAUGCUCUCAAAUATT against Polr3d, the z-score is reported as inactive: 0.281.
For GGGCUUCAGAAAAUCCAGGTT against Dclre1a, the z-score was inactive: -0.827.
With GGCCAAGACACCCUUGUUUTT against Zfp524 the z-score was inactive: -0.967.
